These are yes or no findings as the source states them, for the method shown. In cells and extracts the contact can be indirect. Some binding calls cover weakened binding; strength is not graded here.
Tests used:
Assay in all cases: co-IP; co-expressed in HEK293T cells; Myc-MEKK5 or mutants immunoprecipitated with anti-Myc antibody and protein A-Sepharose beads (4 °C, 3 h, four washes with lysis buffer); co-precipitated ligases detected by blot with anti-HA or anti-NEDD4
Myc-MEKK5 = Myc-MEKK5 (UniProt Q99683)
Myc-MEKK5-K709A = Myc-MEKK5-K709A (UniProt Q99683)
Myc-MEKK5-Y882A = Myc-MEKK5-Y882A (UniProt Q99683)

The chains behind the UniProt entries cited, without tags or fusion partners. Where a name states a change or a piece, a line headed by the entry shows the natural chain unless it says otherwise. A line that says so, or that is headed by a name, gives the form on record, which may keep a tag or linker.
UniProt Q99683: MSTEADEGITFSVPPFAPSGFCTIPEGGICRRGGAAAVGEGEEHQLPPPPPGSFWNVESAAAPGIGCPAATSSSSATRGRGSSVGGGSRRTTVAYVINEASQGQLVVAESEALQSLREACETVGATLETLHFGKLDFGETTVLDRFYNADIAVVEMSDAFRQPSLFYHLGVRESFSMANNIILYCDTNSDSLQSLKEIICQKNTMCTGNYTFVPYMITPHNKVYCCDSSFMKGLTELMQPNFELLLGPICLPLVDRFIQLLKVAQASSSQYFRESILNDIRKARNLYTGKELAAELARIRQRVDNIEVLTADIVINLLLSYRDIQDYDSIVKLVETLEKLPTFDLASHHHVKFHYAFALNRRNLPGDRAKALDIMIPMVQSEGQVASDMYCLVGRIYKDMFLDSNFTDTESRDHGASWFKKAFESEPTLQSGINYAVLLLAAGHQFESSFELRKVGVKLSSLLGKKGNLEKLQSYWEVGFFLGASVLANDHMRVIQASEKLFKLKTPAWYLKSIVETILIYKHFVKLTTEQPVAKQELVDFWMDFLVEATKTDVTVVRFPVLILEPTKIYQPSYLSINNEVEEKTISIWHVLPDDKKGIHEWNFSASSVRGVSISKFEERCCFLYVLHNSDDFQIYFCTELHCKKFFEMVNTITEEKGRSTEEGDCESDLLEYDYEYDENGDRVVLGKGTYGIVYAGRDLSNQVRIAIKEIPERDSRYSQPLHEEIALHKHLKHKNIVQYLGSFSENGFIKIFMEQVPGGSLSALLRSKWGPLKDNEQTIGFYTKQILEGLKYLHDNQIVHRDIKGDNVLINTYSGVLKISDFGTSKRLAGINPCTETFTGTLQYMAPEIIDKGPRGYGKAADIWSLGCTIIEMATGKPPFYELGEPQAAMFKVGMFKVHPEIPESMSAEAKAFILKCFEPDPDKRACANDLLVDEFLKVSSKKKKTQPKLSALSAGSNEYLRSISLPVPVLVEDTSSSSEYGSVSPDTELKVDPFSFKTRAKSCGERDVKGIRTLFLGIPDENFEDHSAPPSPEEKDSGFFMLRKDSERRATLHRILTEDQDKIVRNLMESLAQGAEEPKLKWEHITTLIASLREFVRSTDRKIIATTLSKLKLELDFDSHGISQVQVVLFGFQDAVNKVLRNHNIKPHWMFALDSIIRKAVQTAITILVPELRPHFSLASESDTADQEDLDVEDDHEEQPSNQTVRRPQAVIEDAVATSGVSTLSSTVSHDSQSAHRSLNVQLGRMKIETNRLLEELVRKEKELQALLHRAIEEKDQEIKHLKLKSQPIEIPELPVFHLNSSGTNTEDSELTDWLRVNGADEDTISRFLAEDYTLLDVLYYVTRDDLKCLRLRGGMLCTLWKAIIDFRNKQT
HA-NEDD4 (P46934-4, form named): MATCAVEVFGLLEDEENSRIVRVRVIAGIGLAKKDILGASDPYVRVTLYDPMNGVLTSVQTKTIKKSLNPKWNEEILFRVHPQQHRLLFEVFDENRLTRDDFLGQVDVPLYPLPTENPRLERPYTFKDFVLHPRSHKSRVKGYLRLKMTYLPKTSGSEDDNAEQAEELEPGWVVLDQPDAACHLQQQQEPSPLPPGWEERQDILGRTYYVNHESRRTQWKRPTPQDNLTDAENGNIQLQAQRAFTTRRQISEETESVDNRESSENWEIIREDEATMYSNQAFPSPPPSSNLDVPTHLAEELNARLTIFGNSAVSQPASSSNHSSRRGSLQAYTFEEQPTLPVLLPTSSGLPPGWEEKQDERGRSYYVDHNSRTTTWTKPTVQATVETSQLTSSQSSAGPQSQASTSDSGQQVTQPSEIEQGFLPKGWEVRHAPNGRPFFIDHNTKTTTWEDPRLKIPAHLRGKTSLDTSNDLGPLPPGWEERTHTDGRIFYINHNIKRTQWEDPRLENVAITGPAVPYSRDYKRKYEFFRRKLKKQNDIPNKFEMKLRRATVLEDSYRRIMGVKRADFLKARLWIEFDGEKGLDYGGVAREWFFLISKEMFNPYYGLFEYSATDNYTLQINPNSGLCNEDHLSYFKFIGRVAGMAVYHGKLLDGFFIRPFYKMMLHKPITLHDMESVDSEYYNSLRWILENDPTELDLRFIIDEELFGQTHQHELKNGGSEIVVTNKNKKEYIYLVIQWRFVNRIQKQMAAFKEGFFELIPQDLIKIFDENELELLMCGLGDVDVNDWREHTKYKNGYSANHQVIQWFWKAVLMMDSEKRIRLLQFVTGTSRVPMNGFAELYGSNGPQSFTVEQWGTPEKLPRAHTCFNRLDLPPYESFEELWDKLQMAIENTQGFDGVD

- binding (Myc-MEKK5): binds
- binding (Myc-MEKK5-K709A): binds
- binding (Myc-MEKK5-Y882A): binds
Substance: HA-NEDD4 (from UniProt P46934-4 1-900)
